In data set [1] the target is T1, MS2 coat protein, dlFG mutant del68-81insG (Escherichia phage MS2) (UniProt P03612).
T1 sequence (looked up, limits assumed): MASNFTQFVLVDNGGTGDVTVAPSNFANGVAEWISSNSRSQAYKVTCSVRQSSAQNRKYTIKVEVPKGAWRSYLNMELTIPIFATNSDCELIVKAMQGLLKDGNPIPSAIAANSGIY
Kind of data set: binding assay. As to conditions: 4 mM Mg2+, RNA-MaP array, 100 mM Tris-HCl pH 7.5, 80 mM KCl, 4 mM MgCl2, 0.1 mg/mL BSA, 1 mM DTT, 0.01 mg/mL yeast tRNA, 0.01% Tween-20, protein 1.5 nM to 3 uM, 37 C (Table S3), purified recombinant protein.

In data set [2] the target is MS2 coat protein (bacteriophage MS2) (UniProt P03612). The data set can be described thus: flow cytometry of RNA-coated beads. Particulars: RNA-MaP: 100 mM Tris-HCl pH 7.5, 80 mM KCl, 4 mM MgCl2, 0.1 mg/mL BSA, 1 mM DTT, 0.01 mg/mL yeast tRNA, 0.01% Tween-20, protein details: fluorescently labeled.
The mark [3] stands for this setting: no ligand, variant of MS2 control.

For some of these results: Where a protein sequence is shown, tags need not be part of it. For some of these results: The exact form of at least one protein or probe is not confirmed. For some of these results: The comparison behind a weaker result is the experiment's own reference, which may not be listed here. For some of these results: At least one verdict rests on a figure or table, not on a statement of the authors.

As to “AGAUGCAUGUAGAAGGGAGGAUCACCAGUGUACUCAGGAUAUACAUGUGGUGACAUGAGGAUCACCCAUGUAUGCCAGAAGUUC [Eterna 6429645 (Inverted Same State NG 1)]”, the Kd in data set [1] (no ligand) was over 3000 nM.
The same measure, in the same setting: the figure for “GGCCCGGACUUGGAAUGGGUGUUUCCCUCACGAGGACCGGUACGGCCGCCACUCGAAGACAUGAGGAUCACCCAUGUAGUCGACA [Eterna 7727150 (Exclusion - Tryptophan A)]” is over 3000 nM.
On to “UGUAUGUGAUCUGAUACCAGUCCAACUGGUAAAGCAUGAGGAUCACCCAUGUAAAAUUGGGACCCUUGGCAGCAGAUCGCAUACU [Eterna 7730098 (Same State - Theophylline B)]”, for which the Kd in data set [1] (setting [3]) was over 3000 nM.
As for “CCGAAUGUCACAGGAUAUGGUCCGGGCACGGGACCAGAAGGGUGAUCUCACAUGAGGAUCACCCAUGUGCAGGCGUUAGGCUGC [Eterna 6148459 (Same State NG 1)]”, the Kd in data set [1] (no ligand) is over 3000 nM.
In the case of “AUGAGGGAAGUAGGAUAUGAUCAAGACAUGAGGAUCACCCAUGUAAUGAGGGUGUGUGUCUUUGUUCAGAAGGACUUGUGUCAA [Eterna 6148143 (Exclusion NG 2)]”, the dissociation constant Kd in data set [1] (FMN 200 uM) was over 3000 nM.
Still for that read-out and setting: the figure for “AAUAAAUAUAAAUUUUAUUUGUCGUAGGAUAUGGGUGACAUGAGGAUCACCCAUGUUGCAGACGACCAGAAGGGCGGCGGAUAU [Eterna 6425687 (Small Loop Same State NG 3)]” is over 3000 nM.
“GGGUAUGUCGCAGAAGUAGCUAUCGGAGGAUAUUCAUACCGGAAACGGACAUGAGGAUCACCCAUGUGGCGAAAGCCUUGGGAGAAGGCUGAUAGCUACAACUGCGACAUACCCAAAAAAAAAAAAAAAAAAAAAAAAA [BC_JL-sng2-3.09]”: the binding result in data set [2] (no FMN (OFF state)) is given as “binds more weakly”; in data set [2] (with FMN (ON state)), “binds”.
Regarding “AAUUUAAUACAUGAGGAUCACCCAUGUAAUACUUGUAAGAUCAAGGAUAUCAGCUCGUUUAGAGCUGAGAAGGUGAUCACAUGU [Eterna 5958801 (Same State NG 3)]”, the equilibrium dissociation constant (Kd) in data set [1] (no ligand) is over 3000 nM.
Consider “AGAGUCACAUAAGGAUAUCCCUUGACGGGAACCAAGUGAUGUUUGGUUAGACGACCUCUUAUCACGGGAGAAGGUAUAUUUGUAU [Eterna 1576 (Same State - FMN B)]”, for which the Kd in data set [1] (setting [3]) is over 3000 nM.
In the case of “AUAAUGUGAGGAUAUCAGUCGACUAGCUGCGGCUAGUCGACUGAGAAGGCACAUGAGGAUCACCCAUGUAGAUC [Eterna 5971727 (Exclusion 4)]”, the Kd in data set [1] (FMN 200 uM) is over 3000 nM.
Turning to “GGUACCAUCGCAGGAUAUGCUAUCCUUUGGGUAGCAGAAGGGUGAUAACAUGAGGAUCACCCAUGUGGUACCGGGCGUGAGCCC [Eterna 6130126 (Same State NG 1)]”, in data set [1] (no ligand), the Kd is over 3000 nM.
Same read-out and setting: with “CAACGUACCAGAGGAUAUGAUUGUGGGUAAAGAGCGCUCAGGUGGCUACAUGAGGAUCACCCAUGUCAGAAGGCUGGAGUUCAA [Eterna 6148029 (Exclusion NG 2)]” the figure was over 3000 nM.

The values are drawn from article PMC9170038.
